Measured values taken from EP1972624A1, “Benzoxazinones and their use as ultraviolet light absorbers” (Clariant International Ltd., priority 2007, dated 2008).

Legend:
[1] = Artificial UV irradiation (UV-CON A, ASTM D 5208), impact on elongation at break; conditions: UV absorber 0.2 %
[2] = Artificial UV irradiation (UV-CON A, ASTM D 5208), impact on tensile strength; conditions: UV absorber 0.2 %
[3] = Artificial UV irradiation (UV-CON A, ASTM D 5208), impact on transparency; conditions: UV absorber 0.2 %
[4] = Oven aging at 120°C, impact on transparency (Table 4); conditions: oven aging 120°C, UV absorber 0.2 %

Structure (SMILES) | Impact on elongation at break (%) ([1]; exposure time 50 hours) | Impact on elongation at break (%) ([1]; exposure time 100 hours) | Impact on tensile strength (MPa) ([2]; exposure time 0 hours) | Impact on tensile strength (MPa) ([2]; exposure time 50 hours) | Impact on tensile strength (MPa) ([2]; exposure time 100 hours) | Impact on transparency (%) ([3]; exposure time 0 hours) | Impact on transparency (%) ([3]; exposure time 50 hours) | Impact on transparency (%) ([3]; exposure time 100 hours) | Impact on transparency (%) ([4]; exposure time 0 days) | Impact on transparency (%) ([4]; exposure time 1 day) | Impact on transparency (%) ([4]; exposure time 2 days) | Impact on transparency (%) ([4]; exposure time 3 days)
CCCCCCCCOc1c(-c2nc3ccccc3c(=O)o2)sc2ccccc12 [(Ia)] | 73.2% | 54.0% | 69.5 MPa | 69.1 MPa | 70.8 MPa |  |  |  |  |  |  | 
CCCCC(CC)COc1c(-c2nc3ccccc3c(=O)o2)sc2ccccc12 (stereo not shown) [(Ib)] |  |  |  |  |  | 90.28% | 90.21% | 90.20% | 90.27% | 90.20% | 90.12% | 90.04%
COC(=O)C(=Cc1ccc(C=C(C(=O)OC)C(=O)OC)cc1)C(=O)OC [Hostavin®B-CAP] |  |  |  |  |  | 90.26% | 90.18% | 90.18% | 90.19% | 90.10% | 90.07% | 89.98%
CCCCCCOc1ccc(-c2nc(-c3ccccc3)nc(-c3ccccc3)n2)c(O)c1 [Tinuvin®1577] |  |  |  |  |  | 90.22% | 90.11% | 90.15% | 90.21% | 90.14% | 89.94% | 89.85%
CCCCCCCCOc1cc(-c2nc3ccccc3c(=O)o2)cc(-c2nc3ccccc3c(=O)o2)c1 [YT 35/03, reference compound] | 68.2% | 51.2% | 62.6 MPa | 66.3 MPa | 69.4 MPa |  |  |  |  |  |  | 
